Assay results as given in PMC9481612, “Molecular architecture of the augmin complex” (Nature Communications, 2022).

The chains behind the UniProt entries cited, without tags or fusion partners. Where a name states a change or a piece, a line headed by the entry shows the natural chain unless it says otherwise.
UniProt Q9H6D7: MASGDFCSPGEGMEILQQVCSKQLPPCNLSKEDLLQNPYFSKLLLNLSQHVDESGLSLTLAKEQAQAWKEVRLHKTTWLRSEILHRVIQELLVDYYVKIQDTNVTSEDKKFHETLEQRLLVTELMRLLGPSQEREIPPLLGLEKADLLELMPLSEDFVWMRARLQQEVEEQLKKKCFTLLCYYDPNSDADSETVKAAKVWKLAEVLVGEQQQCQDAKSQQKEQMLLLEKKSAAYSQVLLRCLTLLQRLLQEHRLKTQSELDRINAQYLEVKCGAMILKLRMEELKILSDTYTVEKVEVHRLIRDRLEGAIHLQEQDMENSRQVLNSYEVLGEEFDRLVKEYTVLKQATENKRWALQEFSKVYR

Legend:
HAUS2 (human) [1] = target: T1, HAUS2 (human) (UniProt Q9NVX0); assay: co-purification; holo-complex, eight subunits co-expressed in High5 cells; cleared lysate on StrepII-Trap (tag on H2), eluted with D-desthiobiotin, then Superose 6; SDS-PAGE
T1 sequence: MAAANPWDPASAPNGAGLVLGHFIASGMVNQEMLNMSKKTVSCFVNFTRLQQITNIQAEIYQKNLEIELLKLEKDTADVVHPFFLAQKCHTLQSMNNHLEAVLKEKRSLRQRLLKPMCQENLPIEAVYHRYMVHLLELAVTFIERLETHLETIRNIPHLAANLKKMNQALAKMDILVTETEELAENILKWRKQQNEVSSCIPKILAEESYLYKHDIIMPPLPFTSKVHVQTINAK

HAUS2 (human) [2] = target: T1, HAUS2 (human); assay: cryo-EM structure; augmin^ΔH6C octamer on thin amorphous carbon film, Volta Phase Plate; head, neck and legs refined separately to 5–7 Å; subunits placed by fitting AlphaFold2/ColabFold models into the maps; both purified
HAUS8 (human) [3] = target: T2, HAUS8 (human) (UniProt Q9BT25); assay: as above
T2 sequence: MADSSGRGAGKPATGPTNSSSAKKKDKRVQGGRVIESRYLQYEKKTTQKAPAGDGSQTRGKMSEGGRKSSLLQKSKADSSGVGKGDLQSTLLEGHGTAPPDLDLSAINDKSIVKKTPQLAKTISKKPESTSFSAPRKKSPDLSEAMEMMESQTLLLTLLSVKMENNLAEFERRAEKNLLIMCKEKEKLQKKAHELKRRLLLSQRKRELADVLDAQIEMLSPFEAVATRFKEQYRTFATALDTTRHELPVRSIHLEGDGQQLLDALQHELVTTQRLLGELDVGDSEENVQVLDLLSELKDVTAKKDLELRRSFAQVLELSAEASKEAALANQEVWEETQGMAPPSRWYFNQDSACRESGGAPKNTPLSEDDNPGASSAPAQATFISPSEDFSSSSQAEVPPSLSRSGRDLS

HAUS2 (human) [4] = target: T1, HAUS2 (human); assay: cross-linking; purified augmin^ΔH6C with DSSO at 250:1, 500:1, 750:1 and 1000:1 molar ratio, 1 h on ice; trypsin in gel or in solution, LC-MS/MS, MetaMorpheus, 1% FDR; both purified
HAUS8 (human) [5] = target: T2, HAUS8 (human); assay: as above
HAUS4 (human) [6] = target: HAUS4 (human) (UniProt Q9H6D7); assay: cryo-EM structure; augmin^ΔH6C octamer on thin amorphous carbon film, Volta Phase Plate; head, neck and legs refined separately to 5–7 Å; subunits placed by fitting AlphaFold2/ColabFold models into the maps; both purified
HAUS4 (human) [7] = target: HAUS4 (human) (UniProt Q9H6D7); assay: cross-linking; purified augmin^ΔH6C with DSSO at 250:1, 500:1, 750:1 and 1000:1 molar ratio, 1 h on ice; trypsin in gel or in solution, LC-MS/MS, MetaMorpheus, 1% FDR; both purified
HAUS7 (human) [8] = assay: as above
HAUS7 (human) [9] = assay: cryo-EM structure; augmin^ΔH6C octamer on thin amorphous carbon film, Volta Phase Plate; head, neck and legs refined separately to 5–7 Å; subunits placed by fitting AlphaFold2/ColabFold models into the maps; both purified

Q: With HAUS7 (human) as the molecule, how does the binding (HAUS2 (human) [1]) read?
A: binds

Q: What about the binding (HAUS2 (human) [2]) of the same molecule?
A: binds

Q: What about the binding (HAUS8 (human) [3]) of the same molecule?
A: binds

Q: And the binding (HAUS2 (human) [4])?
A: binds

Q: What about the binding (HAUS8 (human) [5]) of the same molecule?
A: binds

B1: HAUS1 (protein, UniProt Q96CS2 1-278)
chain: MEPQEERETQVAAWLKKIFGDHPIPQYEVNPRTTEILHHLSERNRVRDRDVYLVIEDLKQKASEYESEAKYLQDLLMESVNFSPANLSSTGSRYLNALVDSAVALETKDTSLASFIPAVNDLTSDLFRTKSKSEEIKIELEKLEKNLTATLVLEKCLQEDVKKAELHLSTERAKVDNRRQNMDFLKAKSEEFRFGIKAAEEQLSARGMDASLSHQSLVALSEKLARLKQQTIPLKKKLESYLDLMPNPSLAQVKIEEAKRELDSIEAELTRRVDMMEL
Q: Which binding (HAUS4 (human) [6]) does the source give for B1 here?
A: binds

Q: And the binding (HAUS4 (human) [7])?
A: binds

B2: HAUS3 (natural protein, human, UniProt Q68CZ6 1-603, looked up)
chain: MSCGNEFVETLKKIGYPKADNLNGEDFDWLFEGVEDESFLKWFCGNVNEQNVLSERELEAFSILQKSGKPILEGAALDEALKTCKTSDLKTPRLDDKELEKLEDEVQTLLKLKNLKIQRRNKCQLMASVTSHKSLRLNAKEEEATKKLKQSQGILNAMITKISNELQALTDEVTQLMMFFRHSNLGQGTNPLVFLSQFSLEKYLSQEEQSTAALTLYTKKQFFQGIHEVVESSNEDNFQLLDIQTPSICDNQEILEERRLEMARLQLAYICAQHQLIHLKASNSSMKSSIKWAEESLHSLTSKAVDKENLDAKISSLTSEIMKLEKEVTQIKDRSLPAVVRENAQLLNMPVVKGDFDLQIAKQDYYTARQELVLNQLIKQKASFELLQLSYEIELRKHRDIYRQLENLVQELSQSNMMLYKQLEMLTDPSVSQQINPRNTIDTKDYSTHRLYQVLEGENKKKELFLTHGNLEEVAEKLKQNISLVQDQLAVSAQEHSFFLSKRNKDVDMLCDTLYQGGNQLLLSDQELTEQFHKVESQLNKLNHLLTDILADVKTKRKTLANNKLHQMEREFYVYFLKDEDYLKDIVENLETQSKIKAVSLED
notes: HAUS3, human; 603; also called H3; source: High5 insect cells, co-infected with baculoviruses; purified as part of the augmin octamer (StrepII-Trap, Superose 6)
Q: For B2, which binding (HAUS4 (human) [7]) is on record?
A: binds

B3: HAUS5 (protein, UniProt O94927 1-633)
chain: MELAQEARELGCWAVEEMGVPVAARAPESTLRRLCLGQGADIWAYILQHVHSQRTVKKIRGNLLWYGHQDSPQVRRKLELEAAVTRLRAEIQELDQSLELMERDTEAQDTAMEQARQHTQDTQRRALLLRAQAGAMRRQQHTLRDPMQRLQNQLRRLQDMERKAKVDVTFGSLTSAALGLEPVVLRDVRTACTLRAQFLQNLLLPQAKRGSLPTPHDDHFGTSYQQWLSSVETLLTNHPPGHVLAALEHLAAEREAEIRSLCSGDGLGDTEISRPQAPDQSDSSQTLPSMVHLIQEGWRTVGVLVSQRSTLLKERQVLTQRLQGLVEEVERRVLGSSERQVLILGLRRCCLWTELKALHDQSQELQDAAGHRQLLLRELQAKQQRILHWRQLVEETQEQVRLLIKGNSASKTRLCRSPGEVLALVQRKVVPTFEAVAPQSRELLRCLEEEVRHLPHILLGTLLRHRPGELKPLPTVLPSIHQLHPASPRGSSFIALSHKLGLPPGKASELLLPAAASLRQDLLLLQDQRSLWCWDLLHMKTSLPPGLPTQELLQIQASQEKQQKENLGQALKRLEKLLKQALERIPELQGIVGDWWEQPGQAALSEELCQGLSLPQWRLRWVQAQGALQKLCS
Q: For B3, which binding (HAUS7 (human) [8]) is on record?
A: binds

B4: HAUS6 N-terminal region (a.a. 1–432) (domain or fragment, UniProt Q7Z4H7 1-432)
chain: MSSASVTAFEKEHLWMYLQALGFEPGPATIACGKIVSHTHLGVNMFDKLNRDAFHIISYFLFQVLDQSLTKEVFKFCWPPFDQKSDTEFRKHCCEWIKRISGECGSSFPQVVGSLFLSPGGPKFIHLMYHFARFVAMKYIKSNSKNSSHHFVETFNIKPQDLHKCIARCHFARSRFLQILQRQDCVTQKYQENAQLSVKQVRNLRSECIGLENQIKKMEPYDDHSNMEEKIQKVRSLWASVNETLMFLEKEREVVSSVLSLVNQYALDGTNVAINIPRLLLDKIEKQMFQLHIGNVYEAGKLNLLTVIQLLNEVLKVMKYERCQADQARLTVDLHYLEKETKFQKERLSDLKHMRYRIKDDLTTIRHSVVEKQGEWHKKWKEFLGLSPFSLIKGWTPSVDLLPPMSPLSFDPASEEVYAKSILCQYPASLPD
Q: With B4 as the molecule, how does the binding (HAUS7 (human) [9]) read?
A: binds

These are yes or no findings as the source states them, for the method shown. Binding can be weak; no strength is given. For some of these results: In cells and extracts the contact can be indirect.
